{
  "source": "patent US12180187B2",
  "about": "“1-phenyl-5-azinylpyrazolyl-3-oxyalkyl acids and their use for controlling unwanted plant growth” (BAYER AKTIENGESELLSCHAFT, priority 2019, dated 2024)",
  "key": {"DIGSA": {"system": "DIGSA", "assay": "Post-emergence action at 320 g/ha against DIGSA", "type": "in vivo, Digitaria sanguinalis", "details": "dosage 320 g/ha, visual rating about 3 weeks after treatment vs untreated controls (100% = plants died)", "from_the_text": "(§1) Accordingly, the compounds of the invention have good herbicidal action against a broad spectrum of weed grasses and broad-leaved weeds and are therefore suitable for controlling unwanted vegetation by the post-emergence method. • b) Seeds of monocotyledonous and dicotyledonous weeds and crop plants are placed in sandy loam in plastic or organic planting pots, covered with soil and cultivated in a greenhouse under controlled growth conditions. 2 to 3 weeks after sowing, the test plants are treated at the one-leaf stage. The compounds of the invention, formulated in the form of wettable powders (WP) or as emulsion concentrates (EC), are then sprayed onto the green parts of the plants as aqueous suspension or emulsion with addition of 0.5% additive at a water application rate of 600 l/ha (converted). After the test plants have been kept in the greenhouse under optimum growth conditions for about 3 weeks, the activity of the preparations is rated visually in comparison to untreated controls. For example, 100% activity=the plants have died, 0% activity=like control plants. Tables 39 to 49 below show the effects of selected compounds of the general formula (I) according to Tables 1 and 2 on various harmful plants and at an application rate corresponding to 320 g/ha, which were obtained by the experimental procedure mentioned above."}, "AMARE": {"system": "AMARE", "assay": "Post-emergence action at 320 g/ha against AMARE", "type": "in vivo, Amaranthus retroflexus", "details": "visual rating about 3 weeks after treatment vs untreated controls", "from_the_text": "as §1"}, "STEME": {"system": "STEME", "assay": "Pre-emergence action against STEME, 1280 g/ha", "type": "in vivo, Stellaria media", "details": "scored visually after about 3 weeks vs untreated controls (100% = plants have died)", "from_the_text": "1. Pre-Emergence Herbicidal Effect and Crop Plant Compatibility a) Seeds of mono- and dicotyledonous weed plants are placed in plastic pots in sandy loam soil (doubly sown with one species each of mono- or dicotyledonous weed plants per pot) and covered with soil. The compounds of the invention, formulated in the form of wettable powders (WP) or as emulsion concentrates (EC), are then applied onto the surface of the covering soil as aqueous suspension or emulsion with addition of 0.5% additive at a water application rate equivalent to 600 litres per hectare. After the treatment, the pots are placed in a greenhouse and kept under good growth conditions for the trial plants. After about 3 weeks, the effect of the preparations is scored visually in comparison with untreated controls as percentages. For example, 100% activity=the plants have died, 0% activity=like control plants. 1. Pre-Emergence Effectiveness Tables 1 to 12 below show the effects of selected compounds of the general formula (I) according to Tables 1 and 2 on various harmful plants and at an application rate corresponding to 1280 g/ha, which were obtained by the experimental procedure mentioned above."}, "ALOMY": {"system": "ALOMY", "assay": "Pre-emergence action at 320 g/ha against ALOMY", "type": "in vivo, Alopecurus myosuroides", "details": "scored visually after about 3 weeks vs untreated controls (100% = plants have died)", "from_the_text": "(§2) b) Seeds of monocotyledonous and dicotyledonous weed plants and crop plants are placed in plastic or organic planting pots and covered with soil. The compounds of the invention, formulated in the form of wettable powders (WP) or as emulsion concentrates (EC), are then applied onto the surface of the covering soil as aqueous suspension or emulsion with addition of 0.5% additive at a water application rate of 600 l/ha (converted). After the treatment, the pots are placed in a greenhouse and kept under good growth conditions for the trial plants. After about 3 weeks, the effect of the preparations is scored visually in comparison with untreated controls as percentages. For example, 100% activity=the plants have died, 0% activity=like control plants. Tables 13 to 26 below show the effects of selected compounds of the general formula (I) on various harmful plants and at an application rate corresponding to 320 g/ha, which were obtained by the experimental procedure mentioned above."}, "POLCO [1]": {"system": "POLCO", "assay": "Pre-emergence action at 320 g/ha against POLCO", "type": "in vivo, Fallopia convolvulus (Polygonum convolvulus)", "details": "visual scoring after about 3 weeks vs untreated controls", "from_the_text": "as §2"}, "AVEFA": {"system": "AVEFA", "assay": "Pre-emergence action at 320 g/ha against AVEFA", "type": "in vivo", "details": "visual scoring after about 3 weeks vs untreated controls", "from_the_text": "as §2"}, "SETVI": {"system": "SETVI", "assay": "Pre-emergence action at 320 g/ha against SETVI", "type": "in vivo, Setaria viridis", "details": "visual scoring after about 3 weeks vs untreated controls", "from_the_text": "as §2"}, "LOLRI": {"system": "LOLRI", "assay": "Pre-emergence action at 320 g/ha against LOLRI", "type": "in vivo, Lolium rigidum", "details": "visual scoring after about 3 weeks vs untreated controls", "from_the_text": "as §2"}, "POLCO [2]": {"system": "POLCO", "assay": "Post-emergence action at 320 g/ha against POLCO", "type": "in vivo, Fallopia convolvulus (Polygonum convolvulus)", "details": "visual rating about 3 weeks after treatment vs untreated controls", "from_the_text": "as §1"}},
  "note": "The name of at least one read-out is uncertain.",
  "data": [
    {"smiles": "CCOC(=O)COc1nn(-c2ccccc2F)c(-c2ccc(F)nc2)c1Br", "note": "[VII-012, Ethyl {[4-bromo-1-(2-fluorophenyl)-5-(6-fluoropyridin-3-yl)-1H-pyrazol-3-yl]oxy}acetate]", "values": [
      {"measurement": "Post-emergence action at 320 g/ha against DIGSA in %", "setting": "DIGSA", "result": 90, "unit": "%"},
      {"measurement": "Post-emergence action against AMARE in %", "setting": "AMARE", "result": 80, "unit": "%"},
      {"measurement": "Pre-emergence action against STEME", "setting": "STEME", "result": 100, "unit": "%"},
      {"measurement": "Pre-emergence action at 320 g/ha against ALOMY in %", "setting": "ALOMY", "result": 90, "unit": "%"},
      {"measurement": "Pre-emergence action against POLCO in %", "setting": "POLCO [1]", "result": 80, "unit": "%"},
      {"measurement": "Pre-emergence action against AVEFA in %", "setting": "AVEFA", "result": 80, "unit": "%"},
      {"measurement": "Pre-emergence action against SETVI in %", "setting": "SETVI", "result": 90, "unit": "%"},
      {"measurement": "Pre-emergence action against LOLRI in %", "setting": "LOLRI", "result": 80, "unit": "%"},
      {"measurement": "Post-emergence action against POLCO in %", "setting": "POLCO [2]", "result": 80, "unit": "%"}
    ]}
  ]
}
